From PubChem BioAssay AID2685 (National Center for Advancing Translational Sciences (NCATS), 2010)
The other results are listed elsewhere or left out. Shown are side measurements of this screen, not its main read-out; they come without a call. The list favours compounds with an active or inconclusive main result. Potencies come from curve fits of mixed quality, noted in brackets.

Assay: qHTS Assay for Lipid Storage Modulators in Drosophila S3 Cells;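 for cell number change: cells counted by Cell Tracker Red CMTPX staining in the red channel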
Conditions: BODIPY lipid droplet fluorescence, 18-24 h; for cell number change: measured here: cell count max response, cells fed with added oleic acid
Outline: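 Drosophila S3 cells loaded with oleic acid (400 uM, as added) and compounds at several concentrations; lipid droplets imaged by 488-nm laser-scanning cytometry, 500–530 nm intensity and object ratio to cell channel. Percent activity normalized to 20 uM Triacsin C.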

[1] = measured here: cell number channel AC50, cells fed with added oleic acid
[2] = measured here: lipid fluorescence (Fed channel) AC50, cells fed with added oleic acid

Compound | cell number change | AC50 [1] | AC50 [2]
CCN(CC)CC(C)OC(=O)c1cc(OC)c(OC)c(OC)c1 (configuration not stated) | -69% | 5.17 µM [falling, full curve] | 4.11 µM [falling, full curve]
CCOc1ccc(CCNC(=O)CS(=O)(=O)Cc2nc(-c3ccccc3F)oc2C)cc1 | 0.708% |  | 
CCOC(=O)c1[nH]c(C)c(C(=O)c2cc(F)ccc2F)c1C |  | 6.51 µM [rising, single point] | 
COc1cc(NC(=O)CS(=O)(=O)c2ccccc2)cc(OC)c1OC | -12.6% |  | 11.6 µM [rising, partial curve, poor fit]
CCCNC1=C(N(C(C)=O)c2cccc(F)c2)C(=O)c2ccccc2C1=O | -30.6% |  | 2.91 µM [falling, partial curve, poor fit]
O=C(O)c1ccc(N2CCN(c3ccc(Cl)cc3)CC2)c([N+](=O)[O-])c1 | 12.8% |  | 0.116 µM [rising, full curve, poor fit]
O=C(c1cc(C2CC2)nn1-c1ccccc1)N1CCN(Cc2ccccc2F)CC1 | 25% |  | 0.13 µM [rising, partial curve, poor fit]
CC1CN(C(=O)C2(C)CC2(Br)Br)CC(C)O1 (configuration not stated) | -26% | 2.31 µM [falling, single point] | 
COc1cccc2cc(C(=O)NCCN3CCOCC3)oc12 | 21.6% |  | 0.411 µM [falling, single point]
Cc1ccc(N=c2ssnc2Cl)cc1 | -61.5% | 29.1 µM [falling, single point] | 32.6 µM [falling, single point]
Cc1snc(S(=O)(=O)/C(C#N)=N/Nc2ccc(C(F)(F)F)cc2)c1C#N | 47.2% |  | 0.58 µM [rising, single point]
O=C(O)c1ccc(COc2ccccc2[N+](=O)[O-])o1 | -40.2% | 9.2 µM [falling, partial curve, poor fit] | 
CC(NC(=O)Cc1cccc(C(F)(F)F)c1)c1ccc(F)cc1 (configuration not stated) | -13.5% |  | 
CC(=O)Nc1ccc(S(=O)(=O)N2CCN(C(=O)c3ncoc3-c3cccc(F)c3)CC2)cc1 | -6.58% |  | 
CC1CCN(C(=O)COC(=O)c2cc(Cl)cc(Cl)c2N)CC1 | -12.7% |  | 8.2 µM [rising, single point]
Cc1c(Cl)cccc1NC(=O)C1C2C=CC(C2)C1C(=O)O (configuration not stated) | 6.37% |  | 0.206 µM [rising, full curve, poor fit]
COc1ccc(CN(C(=O)c2cccs2)c2ccccc2C(=O)O)cc1 | -48.2% | 0.517 µM [falling, full curve] | 

Part of the list above, tab-delimited:
Compound	cell number change	AC50 [1]	AC50 [2]
CCCNC1=C(N(C(C)=O)c2cccc(F)c2)C(=O)c2ccccc2C1=O	-30.6%		2.91 µM [falling, partial curve, poor fit]
CC(NC(=O)Cc1cccc(C(F)(F)F)c1)c1ccc(F)cc1 (configuration not stated)	-13.5%		
